Data as given in paper PMC4599285.
Results are given in words; binding and its absence hold for the method and conditions named. Binding calls can cover weak binding; strength is not graded here.

Chains of the proteins cited; added tags and fusions are not shown. Lines headed by an entry give the natural chain unless they say otherwise; changes in a name come on top.
UniProt P31749: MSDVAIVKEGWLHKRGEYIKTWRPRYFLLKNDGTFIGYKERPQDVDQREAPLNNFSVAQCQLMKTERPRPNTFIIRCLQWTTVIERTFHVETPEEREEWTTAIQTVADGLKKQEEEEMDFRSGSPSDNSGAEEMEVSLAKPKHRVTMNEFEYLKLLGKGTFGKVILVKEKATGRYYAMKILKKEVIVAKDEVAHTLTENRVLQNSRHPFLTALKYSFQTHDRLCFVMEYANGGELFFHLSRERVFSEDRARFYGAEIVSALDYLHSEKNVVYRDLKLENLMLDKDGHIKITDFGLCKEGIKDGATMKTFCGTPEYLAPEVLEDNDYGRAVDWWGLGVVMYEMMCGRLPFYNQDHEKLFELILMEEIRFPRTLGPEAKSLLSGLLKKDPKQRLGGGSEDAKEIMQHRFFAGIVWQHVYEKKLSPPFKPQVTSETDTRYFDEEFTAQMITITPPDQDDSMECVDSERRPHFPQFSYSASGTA
UniProt P10415: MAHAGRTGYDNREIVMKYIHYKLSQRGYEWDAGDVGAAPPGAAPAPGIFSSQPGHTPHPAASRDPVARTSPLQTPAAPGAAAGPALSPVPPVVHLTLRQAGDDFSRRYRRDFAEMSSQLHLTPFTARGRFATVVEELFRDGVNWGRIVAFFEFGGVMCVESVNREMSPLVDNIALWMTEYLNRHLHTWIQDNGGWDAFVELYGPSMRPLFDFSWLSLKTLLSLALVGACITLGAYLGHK

Biological target: GST-AKT (UniProt P31749)
Assay: pull-down; GST pull-down: Re-ASPP2 or Re-Bcl-2 cultured with GST-AKT; immunoblot; both purified

binding: binds
Substance: Recombinant Bcl-2 (Re-Bcl-2) (from UniProt P10415)
